The text below walks through data of article PMC1764028.

By UniProt entry, the sequences of proteins in these tests, tags left out. Residues count along the entry.
UniProt Q9UPY3: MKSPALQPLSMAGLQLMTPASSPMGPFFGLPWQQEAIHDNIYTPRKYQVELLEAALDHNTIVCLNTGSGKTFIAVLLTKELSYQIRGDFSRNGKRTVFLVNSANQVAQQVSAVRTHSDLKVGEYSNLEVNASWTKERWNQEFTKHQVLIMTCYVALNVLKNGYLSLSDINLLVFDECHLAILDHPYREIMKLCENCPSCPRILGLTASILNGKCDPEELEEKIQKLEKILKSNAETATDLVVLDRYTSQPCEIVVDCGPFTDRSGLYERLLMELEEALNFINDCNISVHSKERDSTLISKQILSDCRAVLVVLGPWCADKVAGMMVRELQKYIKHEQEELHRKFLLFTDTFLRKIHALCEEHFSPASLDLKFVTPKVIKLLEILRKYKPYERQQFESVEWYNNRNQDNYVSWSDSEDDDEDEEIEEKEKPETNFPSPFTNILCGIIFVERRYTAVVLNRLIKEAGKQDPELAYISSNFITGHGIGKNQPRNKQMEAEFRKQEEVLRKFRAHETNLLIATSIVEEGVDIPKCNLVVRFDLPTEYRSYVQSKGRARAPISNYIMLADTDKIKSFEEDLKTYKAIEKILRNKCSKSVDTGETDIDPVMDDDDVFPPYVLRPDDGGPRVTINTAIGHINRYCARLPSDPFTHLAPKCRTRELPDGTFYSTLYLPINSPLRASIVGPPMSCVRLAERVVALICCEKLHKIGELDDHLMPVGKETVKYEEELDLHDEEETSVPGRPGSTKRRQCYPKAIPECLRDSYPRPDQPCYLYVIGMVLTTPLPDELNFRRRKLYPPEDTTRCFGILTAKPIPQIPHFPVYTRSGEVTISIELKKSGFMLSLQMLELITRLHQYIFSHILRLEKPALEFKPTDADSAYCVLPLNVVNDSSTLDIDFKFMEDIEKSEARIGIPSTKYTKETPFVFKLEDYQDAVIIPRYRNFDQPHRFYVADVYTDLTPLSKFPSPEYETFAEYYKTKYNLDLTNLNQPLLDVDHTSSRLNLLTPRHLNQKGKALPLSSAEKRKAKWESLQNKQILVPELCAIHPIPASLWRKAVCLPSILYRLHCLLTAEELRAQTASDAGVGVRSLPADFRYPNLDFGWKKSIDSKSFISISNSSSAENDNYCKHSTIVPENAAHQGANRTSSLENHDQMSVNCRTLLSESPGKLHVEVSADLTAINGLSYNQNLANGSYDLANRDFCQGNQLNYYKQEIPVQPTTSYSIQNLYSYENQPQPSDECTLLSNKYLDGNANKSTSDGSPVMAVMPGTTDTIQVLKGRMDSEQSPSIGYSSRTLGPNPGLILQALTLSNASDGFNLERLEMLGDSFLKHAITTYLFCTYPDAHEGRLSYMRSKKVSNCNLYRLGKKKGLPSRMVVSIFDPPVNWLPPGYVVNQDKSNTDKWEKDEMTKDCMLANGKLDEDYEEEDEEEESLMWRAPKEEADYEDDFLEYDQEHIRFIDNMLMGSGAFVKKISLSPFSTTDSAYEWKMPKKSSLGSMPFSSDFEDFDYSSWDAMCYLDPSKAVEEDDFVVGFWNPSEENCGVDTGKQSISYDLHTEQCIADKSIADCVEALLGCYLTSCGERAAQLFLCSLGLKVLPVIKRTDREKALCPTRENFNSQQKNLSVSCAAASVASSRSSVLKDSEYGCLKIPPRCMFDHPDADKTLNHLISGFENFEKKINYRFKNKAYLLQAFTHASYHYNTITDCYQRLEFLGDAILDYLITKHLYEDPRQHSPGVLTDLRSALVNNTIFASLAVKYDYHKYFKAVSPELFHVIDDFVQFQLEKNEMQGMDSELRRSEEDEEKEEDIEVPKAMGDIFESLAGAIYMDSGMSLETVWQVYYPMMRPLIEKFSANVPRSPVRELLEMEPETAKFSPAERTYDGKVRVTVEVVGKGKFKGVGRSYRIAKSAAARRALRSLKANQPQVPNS
UniProt P04608, residues 1-45: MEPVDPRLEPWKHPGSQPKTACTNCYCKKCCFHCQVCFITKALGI
UniProt Q9UKV8: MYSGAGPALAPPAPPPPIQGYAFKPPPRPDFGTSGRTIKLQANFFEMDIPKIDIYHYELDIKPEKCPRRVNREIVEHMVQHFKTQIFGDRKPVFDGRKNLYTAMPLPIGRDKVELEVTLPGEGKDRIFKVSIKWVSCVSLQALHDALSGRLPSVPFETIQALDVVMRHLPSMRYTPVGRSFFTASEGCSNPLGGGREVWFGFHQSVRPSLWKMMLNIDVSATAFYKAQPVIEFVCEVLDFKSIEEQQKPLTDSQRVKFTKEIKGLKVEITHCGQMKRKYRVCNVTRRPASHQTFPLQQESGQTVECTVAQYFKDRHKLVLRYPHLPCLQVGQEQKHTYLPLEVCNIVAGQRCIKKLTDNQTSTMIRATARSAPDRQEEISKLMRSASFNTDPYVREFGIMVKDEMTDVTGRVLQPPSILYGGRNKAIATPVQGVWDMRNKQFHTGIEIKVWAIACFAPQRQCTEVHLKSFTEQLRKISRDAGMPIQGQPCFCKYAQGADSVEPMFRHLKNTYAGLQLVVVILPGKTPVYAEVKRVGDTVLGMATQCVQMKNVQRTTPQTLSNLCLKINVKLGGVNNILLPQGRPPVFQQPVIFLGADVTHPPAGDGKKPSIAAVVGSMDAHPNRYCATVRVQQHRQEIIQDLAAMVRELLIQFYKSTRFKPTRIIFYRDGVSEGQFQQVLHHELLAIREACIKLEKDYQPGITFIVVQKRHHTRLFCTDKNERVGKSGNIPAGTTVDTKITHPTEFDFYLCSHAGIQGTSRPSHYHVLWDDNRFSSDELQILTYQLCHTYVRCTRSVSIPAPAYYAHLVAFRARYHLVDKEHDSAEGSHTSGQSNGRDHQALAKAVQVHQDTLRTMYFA

Assay [1] has as its target flag-tagged wild-type Dicer (UniProt Q9UPY3). As to the kind of experiment: co-IP; 293T cells co-transfected with flag-tagged Dicer (wt or N-terminal deletion mutants) and Tat; immunoprecipitation with anti-flag beads; blots with anti-flag, anti-Tat, anti-Ago2.
The next assay deals with GST-Tat 1–45 (HIV-1) (UniProt P04608). As to the kind of experiment: pull-down; purified GST, GST-Tat or GST-Tat deletion mutants used to pull down from lysates of myc-Dicer transfected 293T cells; Dicer detected with anti-myc; only the target purified.

No constants are given. Whether binding was seen depends on the method and setting. In cells and extracts the contact can be indirect. Some entries that bind do so weakly or less than the wild type.

On to “argonaute 2 (Ago-2) (from UniProt Q9UKV8 1-859)”, for which the binding entry in assay [1] is listed as “binds”.

Turning to “myc-tagged Dicer (from UniProt Q9UPY3 1-1922) (enzyme)”, the binding result with GST-Tat 1–45 (HIV-1) is reported as “no binding”.
